Reference: the supplement of paper PMC10849652
Some of the results follow.

Protein sequences, listed by entry. Tags and fused reporters are not part of them. Lines headed by an entry give the natural chain unless they say otherwise; changes in a name come on top.
UniProt Q96SI1: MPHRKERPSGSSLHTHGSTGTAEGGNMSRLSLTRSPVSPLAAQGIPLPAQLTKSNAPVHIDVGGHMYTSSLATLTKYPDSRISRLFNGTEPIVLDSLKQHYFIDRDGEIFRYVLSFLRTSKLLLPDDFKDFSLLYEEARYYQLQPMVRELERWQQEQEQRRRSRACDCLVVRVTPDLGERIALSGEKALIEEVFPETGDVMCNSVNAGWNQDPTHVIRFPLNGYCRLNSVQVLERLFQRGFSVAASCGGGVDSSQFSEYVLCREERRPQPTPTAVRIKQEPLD
UniProt Q9P0J7: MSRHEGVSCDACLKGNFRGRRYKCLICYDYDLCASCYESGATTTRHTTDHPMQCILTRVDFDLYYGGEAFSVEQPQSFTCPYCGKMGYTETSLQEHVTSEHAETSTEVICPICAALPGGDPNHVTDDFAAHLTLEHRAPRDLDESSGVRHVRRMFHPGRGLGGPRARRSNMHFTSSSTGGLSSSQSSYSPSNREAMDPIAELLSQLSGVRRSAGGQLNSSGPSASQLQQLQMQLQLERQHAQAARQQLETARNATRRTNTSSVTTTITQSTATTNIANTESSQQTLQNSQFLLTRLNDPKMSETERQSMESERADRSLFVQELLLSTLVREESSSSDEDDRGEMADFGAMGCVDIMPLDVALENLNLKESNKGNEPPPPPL
UniProt Q9Y448: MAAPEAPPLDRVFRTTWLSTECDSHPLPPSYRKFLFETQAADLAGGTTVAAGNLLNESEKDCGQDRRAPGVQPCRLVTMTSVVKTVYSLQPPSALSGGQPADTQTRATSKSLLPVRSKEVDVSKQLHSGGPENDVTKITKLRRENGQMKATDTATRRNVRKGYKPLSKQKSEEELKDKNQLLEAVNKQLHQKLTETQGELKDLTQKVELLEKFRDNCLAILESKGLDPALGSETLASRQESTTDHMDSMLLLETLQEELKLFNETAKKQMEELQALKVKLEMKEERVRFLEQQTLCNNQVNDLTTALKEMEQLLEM
UniProt Q9NVX7: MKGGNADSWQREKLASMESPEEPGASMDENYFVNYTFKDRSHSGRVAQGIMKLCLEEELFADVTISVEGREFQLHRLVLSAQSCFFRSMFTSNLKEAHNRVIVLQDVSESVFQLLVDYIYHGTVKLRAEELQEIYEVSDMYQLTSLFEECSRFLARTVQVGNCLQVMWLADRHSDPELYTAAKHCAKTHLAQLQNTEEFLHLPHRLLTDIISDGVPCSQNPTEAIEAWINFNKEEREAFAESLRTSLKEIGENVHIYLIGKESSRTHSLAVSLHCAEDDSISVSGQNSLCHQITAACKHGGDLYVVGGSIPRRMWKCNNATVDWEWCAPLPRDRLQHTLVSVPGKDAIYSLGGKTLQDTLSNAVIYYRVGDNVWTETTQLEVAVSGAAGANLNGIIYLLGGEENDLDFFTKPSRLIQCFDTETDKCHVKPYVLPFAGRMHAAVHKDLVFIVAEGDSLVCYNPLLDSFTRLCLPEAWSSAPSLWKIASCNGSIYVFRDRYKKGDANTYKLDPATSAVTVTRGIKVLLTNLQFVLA
UniProt Q12840: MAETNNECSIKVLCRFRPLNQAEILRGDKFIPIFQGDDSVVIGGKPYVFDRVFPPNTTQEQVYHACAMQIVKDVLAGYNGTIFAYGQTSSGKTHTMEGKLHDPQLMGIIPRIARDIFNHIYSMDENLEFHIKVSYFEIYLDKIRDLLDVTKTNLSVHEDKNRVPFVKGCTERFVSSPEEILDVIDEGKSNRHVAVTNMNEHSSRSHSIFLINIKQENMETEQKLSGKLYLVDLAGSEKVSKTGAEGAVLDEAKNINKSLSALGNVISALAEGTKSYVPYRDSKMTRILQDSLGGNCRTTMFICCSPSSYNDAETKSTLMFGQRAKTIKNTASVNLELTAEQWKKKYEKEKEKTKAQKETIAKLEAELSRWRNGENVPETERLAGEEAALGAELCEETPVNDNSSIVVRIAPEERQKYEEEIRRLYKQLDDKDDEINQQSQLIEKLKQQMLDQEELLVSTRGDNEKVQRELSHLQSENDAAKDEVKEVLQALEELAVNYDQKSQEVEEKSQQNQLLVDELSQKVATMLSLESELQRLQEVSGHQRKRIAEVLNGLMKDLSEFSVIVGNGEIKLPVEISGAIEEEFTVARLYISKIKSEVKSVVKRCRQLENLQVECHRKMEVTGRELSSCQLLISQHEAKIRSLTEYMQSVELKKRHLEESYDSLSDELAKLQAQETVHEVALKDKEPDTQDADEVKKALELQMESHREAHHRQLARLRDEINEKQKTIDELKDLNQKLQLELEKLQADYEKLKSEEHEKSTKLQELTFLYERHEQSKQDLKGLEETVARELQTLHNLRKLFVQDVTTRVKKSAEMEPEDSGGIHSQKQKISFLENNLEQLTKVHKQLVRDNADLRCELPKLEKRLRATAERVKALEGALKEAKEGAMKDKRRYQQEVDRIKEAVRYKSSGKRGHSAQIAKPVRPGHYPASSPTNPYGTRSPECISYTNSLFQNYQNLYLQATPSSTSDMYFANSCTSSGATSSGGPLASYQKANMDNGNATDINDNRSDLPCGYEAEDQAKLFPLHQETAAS
UniProt Q15058: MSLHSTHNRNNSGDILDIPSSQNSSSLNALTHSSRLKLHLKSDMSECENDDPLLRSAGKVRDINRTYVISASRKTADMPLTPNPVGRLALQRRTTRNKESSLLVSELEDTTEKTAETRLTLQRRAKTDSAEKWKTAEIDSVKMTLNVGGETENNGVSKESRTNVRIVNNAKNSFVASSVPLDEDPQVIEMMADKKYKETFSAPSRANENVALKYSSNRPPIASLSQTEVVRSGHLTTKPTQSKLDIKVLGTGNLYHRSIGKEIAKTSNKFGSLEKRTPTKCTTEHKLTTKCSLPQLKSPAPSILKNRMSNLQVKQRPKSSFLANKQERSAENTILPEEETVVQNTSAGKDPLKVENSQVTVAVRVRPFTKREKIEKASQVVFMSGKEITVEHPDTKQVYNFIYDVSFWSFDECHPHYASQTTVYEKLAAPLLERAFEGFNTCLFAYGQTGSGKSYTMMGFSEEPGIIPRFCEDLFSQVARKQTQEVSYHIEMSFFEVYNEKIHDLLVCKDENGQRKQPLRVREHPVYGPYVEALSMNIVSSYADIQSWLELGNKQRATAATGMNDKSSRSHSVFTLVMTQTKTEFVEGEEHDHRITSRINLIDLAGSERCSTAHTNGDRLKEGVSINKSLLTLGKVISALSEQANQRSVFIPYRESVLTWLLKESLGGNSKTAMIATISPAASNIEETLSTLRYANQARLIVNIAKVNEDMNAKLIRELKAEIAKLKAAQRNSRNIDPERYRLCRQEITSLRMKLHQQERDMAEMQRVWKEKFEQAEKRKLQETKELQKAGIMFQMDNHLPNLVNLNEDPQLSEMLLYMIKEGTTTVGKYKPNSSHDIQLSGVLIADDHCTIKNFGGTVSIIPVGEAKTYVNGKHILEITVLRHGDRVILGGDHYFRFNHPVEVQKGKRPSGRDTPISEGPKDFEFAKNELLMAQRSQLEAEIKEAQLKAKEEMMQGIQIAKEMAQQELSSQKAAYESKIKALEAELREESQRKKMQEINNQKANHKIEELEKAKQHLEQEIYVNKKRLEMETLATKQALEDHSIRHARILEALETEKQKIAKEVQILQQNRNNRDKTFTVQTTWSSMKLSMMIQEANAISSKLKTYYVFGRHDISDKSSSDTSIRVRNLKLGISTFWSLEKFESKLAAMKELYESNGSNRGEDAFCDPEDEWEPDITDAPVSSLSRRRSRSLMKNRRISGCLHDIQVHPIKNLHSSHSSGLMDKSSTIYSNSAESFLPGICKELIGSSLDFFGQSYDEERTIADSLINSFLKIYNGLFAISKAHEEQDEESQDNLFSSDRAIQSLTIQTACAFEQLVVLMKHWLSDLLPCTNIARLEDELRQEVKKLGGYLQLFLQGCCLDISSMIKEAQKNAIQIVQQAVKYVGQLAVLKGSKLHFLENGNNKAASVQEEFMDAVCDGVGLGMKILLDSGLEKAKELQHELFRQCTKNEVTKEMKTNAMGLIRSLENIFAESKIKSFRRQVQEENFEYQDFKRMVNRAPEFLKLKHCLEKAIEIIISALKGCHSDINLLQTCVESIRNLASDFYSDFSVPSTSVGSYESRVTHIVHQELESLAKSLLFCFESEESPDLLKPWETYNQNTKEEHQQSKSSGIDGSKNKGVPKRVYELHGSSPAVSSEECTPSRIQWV
UniProt O00180: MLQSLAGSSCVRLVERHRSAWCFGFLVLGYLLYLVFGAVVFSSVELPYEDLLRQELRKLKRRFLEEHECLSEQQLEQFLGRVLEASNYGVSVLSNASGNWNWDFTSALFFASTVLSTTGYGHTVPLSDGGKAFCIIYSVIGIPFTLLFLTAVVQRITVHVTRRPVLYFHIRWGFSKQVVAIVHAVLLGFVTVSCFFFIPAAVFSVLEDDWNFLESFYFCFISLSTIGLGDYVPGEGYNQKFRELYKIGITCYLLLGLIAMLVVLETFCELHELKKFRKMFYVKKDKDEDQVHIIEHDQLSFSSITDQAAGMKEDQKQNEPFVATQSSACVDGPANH
UniProt Q96EK5: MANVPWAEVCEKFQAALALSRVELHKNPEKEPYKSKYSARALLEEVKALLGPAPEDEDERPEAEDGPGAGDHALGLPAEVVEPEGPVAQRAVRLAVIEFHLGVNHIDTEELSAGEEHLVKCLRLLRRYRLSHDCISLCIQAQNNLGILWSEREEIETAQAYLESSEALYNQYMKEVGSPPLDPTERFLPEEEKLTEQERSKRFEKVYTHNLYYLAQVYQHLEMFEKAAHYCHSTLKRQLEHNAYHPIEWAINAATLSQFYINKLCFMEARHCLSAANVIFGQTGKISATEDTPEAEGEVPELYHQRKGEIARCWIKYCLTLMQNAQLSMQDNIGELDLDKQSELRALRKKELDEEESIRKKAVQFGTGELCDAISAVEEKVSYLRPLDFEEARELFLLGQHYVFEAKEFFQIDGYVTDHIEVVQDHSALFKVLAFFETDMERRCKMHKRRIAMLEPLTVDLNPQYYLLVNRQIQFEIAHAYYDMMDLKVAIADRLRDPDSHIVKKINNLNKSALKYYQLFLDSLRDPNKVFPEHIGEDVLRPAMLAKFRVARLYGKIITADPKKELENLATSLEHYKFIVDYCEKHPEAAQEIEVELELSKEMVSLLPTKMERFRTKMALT

Columns and labels:
Test in all cases: log2 fold change, soluble protein after heating vs DMSO (PISA); higher = thermal stabilisation; K562 cells, 10 uM, 30 min; active = over 0.2 and 3.5 SD of the protein, either way, in both replicates (recomputed)
[1] = compound: CS(=O)(=O)c1ccc(-c2cnc(N)c(C(=O)Nc3ccccc3)n2)cc1
Outline: (§1)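 K562 cells at 2×10^6 cells/mL were treated with 10 μM compound for 30 min. Aliquots were heated for 3 min across 48°C-58°C, pooled, and extracted in PBS with 0.5% NP-40 at 4°C; soluble protein was the supernatant after 21,000xg for 90 min. Soluble protein was quantified by TMTpro 16plex LC-MS/MS with channel sums equalised, and reported as log2 fold change in thermal stability against DMSO controls, with values from duplicates.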

crizotinib = compound: C[C@@H](Oc1cc(-c2cnn(C3CCNCC3)c2)cnc1N)c1c(Cl)ccc(F)c1Cl [crizotinib]
Outline: as §1

[2] = compound: C[C@@H]1COCCN1C2=NC(=NC(=C2)C3(CC3)S(=O)(=O)C)C4=C5C=CNC5=CC=C4
Outline: as §1

[3] = compound: C[C@H](C1=CC=C(C=C1)C(=O)NC2=C3C=CNC3=NC=C2)N
Outline: as §1

duvelisib = compound: C[C@H](Nc1ncnc2nc[nH]c12)c1cc2cccc(Cl)c2c(=O)n1-c1ccccc1 [duvelisib]
Outline: as §1

gandotinib = compound: Cc1cc(Nc2cc(CN3CCOCC3)c3nc(C)c(Cc4ccc(Cl)cc4F)n3n2)n[nH]1 [gandotinib]
Outline: as §1

tozasertib = compound: Cc1cc(Nc2cc(N3CCN(C)CC3)nc(Sc3ccc(NC(=O)C4CC4)cc3)n2)n[nH]1 [tozasertib]
Outline: as §1

[4] = compound: Cc1cc(SCc2sc(-c3ccc(C(F)(F)F)cc3)nc2C)ccc1OCC(=O)O
Outline: as §1

doramapimod = compound: Cc1ccc(-n2nc(C(C)(C)C)cc2NC(=O)Nc2ccc(OCCN3CCOCC3)c3ccccc23)cc1 [doramapimod]
Outline: as §1

ispinesib = compound: Cc1ccc(C(=O)N(CCCN)[C@@H](c2nc3cc(Cl)ccc3c(=O)n2Cc2ccccc2)C(C)C)cc1 [ispinesib]
Outline: as §1

bafetinib = compound: Cc1ccc(NC(=O)c2ccc(CN3CC[C@H](N(C)C)C3)c(C(F)(F)F)c2)cc1Nc1nccc(-c2cncnc2)n1 [bafetinib]
Outline: as §1

[5] = compound: Cc1cccc(CC(=O)N2CCc3c2ccc(-c2cn(C)c4ncnc(N)c24)c3F)n1
Outline: as §1

nilotinib = compound: Cc1cn(-c2cc(NC(=O)c3ccc(C)c(Nc4nccc(-c5cccnc5)n4)c3)cc(C(F)(F)F)c2)cn1 [nilotinib]
Outline: as §1

[6] = compound: Cc1nc(Nc2n[nH]c3c2CN(C(=O)N[C@H](CN(C)C)c2ccccc2)C3(C)C)c2sccc2n1
Outline: as §1

dasatinib = compound: Cc1nc(Nc2ncc(C(=O)Nc3c(C)cccc3Cl)s2)cc(N2CCN(CCO)CC2)n1 [dasatinib]
Outline: as §1

[7] = compound: Cc1ncc(-c2ccnc(Nc3ccc(S(C)(=O)=O)cc3)n2)n1C(C)C
Outline: as §1

[8] = compound: Cn1cc(-c2ccc3c(c2)CCN3C(=O)Cc2cccc(C(F)(F)F)c2)c2c(N)ncnc21
Outline: as §1

[9] = compound: Cn1cc(-c2ccc3nnc(C(F)(F)c4ccc5ncccc5c4)n3n2)cn1
Outline: as §1

tipifarnib = compound: Cn1cncc1[C@@](N)(c1ccc(Cl)cc1)c1ccc2c(c1)c(-c1cccc(Cl)c1)cc(=O)n2C [tipifarnib]
Outline: as §1

mubritinib = compound: FC(F)(F)c1ccc(/C=C/c2nc(COc3ccc(CCCCn4ccnn4)cc3)co2)cc1 [mubritinib]
Outline: as §1

Measured: log2 fold change

KCTD15 (UniProt Q96SI1)
inactive: [1] 0.042 | crizotinib 0.046 | [2] -0.029 | [3] 0.144 | duvelisib 0.085 | gandotinib -0.002 | tozasertib -0.037 | [4] -0.051 | doramapimod 0.016 | ispinesib -0.073 | bafetinib -0.037 | [5] -0.055 | nilotinib 0.012 | [6] -0.043 | dasatinib 0.039 | [7] -0.023 | [8] -0.002 | [9] 0.091 | tipifarnib -0.022 | mubritinib 0.054

KCMF1 (UniProt Q9P0J7)
inactive: [1] 0.086 | crizotinib -0.078 | [2] -0.311 | [3] 0.078 | gandotinib -0.145 | tozasertib -0.029 | doramapimod 0.003 | ispinesib 0.021 | bafetinib 0.05 | [5] 0.156 | nilotinib -0.005 | [6] 0.018 | [7] -0.07 | [8] 0.06 | [9] -0.04 | tipifarnib -0.176 | mubritinib 0.062

KNSTRN (UniProt Q9Y448)
inactive: [1] -0.056 | crizotinib 0.004 | [2] -0.158 | [3] 0.07 | duvelisib -0.024 | gandotinib 0.016 | tozasertib 0.035 | [4] 0.017 | doramapimod 0.033 | ispinesib -0.09 | bafetinib -0.022 | [5] -0.037 | nilotinib -0.003 | [6] -0.108 | dasatinib 0.007 | [7] 0.01 | [8] -0.152 | [9] -0.034 | tipifarnib 0.043 | mubritinib -0.057

KIAA0930 isoform 2 (UniProt Q6ICG6)
inactive: [1] -0.126 | crizotinib 0.079 | [2] 0.026 | [3] 0.162 | duvelisib -0.121 | [4] -0.091 | doramapimod -0.024 | bafetinib -0.013 | nilotinib 0.021 | [6] -0.076 | dasatinib 0.07 | [7] -0.054 | [8] 0.309 | tipifarnib 0.009 | mubritinib -0.086

KBTBD4 isoform 2 (UniProt Q9NVX7)
inactive: [1] 0.114 | crizotinib 0.12 | [2] 0.03 | [3] -0.002 | duvelisib 0.132 | tozasertib 0.007 | [4] -0.014 | doramapimod 0.038 | ispinesib -0.088 | bafetinib 0.003 | nilotinib 0.047 | [6] 0.019 | dasatinib -0.037 | [7] 0.019 | [8] 0.17 | [9] -0.028 | mubritinib 0.064

KIF5A (UniProt Q12840)
inactive: [1] 0.026 | crizotinib -0.013 | [2] 0.049 | [3] 0.023 | duvelisib 0.051 | gandotinib -0.093 | tozasertib -0.011 | [4] 0 | doramapimod -0.024 | ispinesib 0.027 | bafetinib -0.021 | [5] 0.081 | nilotinib -0.013 | [6] 0.027 | dasatinib -0.024 | [7] 0.033 | [8] 0.018 | [9] -0.017 | tipifarnib -0.005 | mubritinib 0.006

KIF14 (UniProt Q15058)
inactive: [1] 0.018 | crizotinib -0.091 | [2] -0.042 | [3] 0.685 | duvelisib -0.065 | [4] -0.087 | doramapimod 0.001 | bafetinib -0.116 | dasatinib 0.097 | [8] -0.24 | tipifarnib -0.028 | mubritinib 0.009

KCNK1 (UniProt O00180)
inactive: [1] 0.052 | crizotinib 0.267 | [2] 0.059 | [3] 0.136 | duvelisib -0.168 | gandotinib 0.071 | [4] -0.102 | doramapimod -0.087 | ispinesib 0 | bafetinib -0.114 | [5] 0.029 | nilotinib 0.184 | [6] -0.117 | dasatinib 0.254 | [7] -0.073 | [8] 0.032 | [9] -0.083 | tipifarnib 0.123

KIFBP (UniProt Q96EK5)
inactive: [1] -0.036 | crizotinib -0.025 | [2] 0.079 | [3] 0.08 | gandotinib -0.051 | [4] 0.085 | doramapimod -0.053 | ispinesib -0.139 | bafetinib 0.006 | [5] 0.094 | nilotinib -0.162 | [6] -0.079 | dasatinib -0.114 | [7] -0.004 | [8] -0.084 | [9] -0.046 | tipifarnib -0.063 | mubritinib -0.078
